# Test results: patent US20240199626A1, “COMPOUNDS WITH IMPROVED CARDIAC SAFETY FOR THE TREATMENT OF CANCER AND NEURODEGENERATIVE DISORDERS” (priority 2021, published 2024)
# At least one structure is not confirmed: it was looked up by name or label, or the drawing left a doubt.
# System: human K-562 CML T315I mutant tumors
# Conditions: 30 mg/kg daily by oral gavage
smiles,measurement,value
Cc1ccc(C(=O)Nc2ccc(CN3CCN(C)CC3)c(C(F)(F)F)c2)cc1C#Cc1cnc2cccnn12 [Ponatinib],"anti-tumor effect in vivo (tumor burden, tumor regression)",effectively decreased tumor burden
